PubChem BioAssay AID1347075 (National Center for Advancing Translational Sciences (NCATS), 2019)
Screen size: about 400,000 compounds; about 5,500 (1.4%) were called active. Inconclusive means that the source gave no clear call. Such entries were picked first, then a sample of the others. Calls follow the shape of the dose curve; as a rule, active = well fitted cell-killing curve with a large enough effect; inconclusive = small, poorly fitted or top-dose-only effect, or effect the other way; inactive = flat fitted curve, though single readings scatter. Potencies of inconclusive entries are doubtful fits and often do not repeat.

test: qHTS assay for MDR1-selective chemotherapeutics: Primary screen using the parental adenocarcinoma cell KB-3-1; conditions: KB-3-1 viability, CellTiter-Glo ATP luminescence, 72 h; activity change, negative = cytotoxic: at 46.1 µM (top of the series); also: nearly all actives have a fitted effect of over 60% in size
Summary of the method: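 Parental KB-3-1 adenocarcinoma cells in phenol-red-free DMEM with 10% FBS were pin-treated with compounds at several concentrations, incubated 72 h at 37 °C, and viability read by CellTiter-Glo luminescence; concentration-effect curves were fitted after normalization.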
% is scaled to controls: 0 for no effect and ±100 for the full control effect; potency is read from the fitted curve at half-maximal effect.

| SMILES | Potency | activity change, negative = cytotoxic |
| --- | --- | --- |
| Cc1ccc(/C=C/C(=O)C2C(=O)c3ccccc3C2=O)cc1 | inconclusive: 29.1 µM [cytotoxic, single point] |  |
| COc1ccccc1NC(=S)NC(=O)CCCOc1ccc(Cl)cc1Cl |  | inactive: 9.59% |
| CCOCC(O)CS(=O)Cc1ccccc1 (stereo not given) | inconclusive: 23.1 µM [cytotoxic, partial curve, poor fit] |  |
| O=c1oc2ccccc2cc1-c1csc(Cc2nc(-c3ccc(Br)cc3)cs2)n1 | inconclusive: 29.1 µM [cytotoxic, single point] |  |
| Cc1cccc(C)c1NS(=O)(=O)c1ccc(NS(=O)(=O)c2ccc3c(c2)OCCO3)cc1 |  | inactive: -14.3% |
| COc1ccc(C(=O)/C=C2\C(=O)Nc3ccc(Br)cc32)cc1 | inconclusive: 0.058 µM [rising, full curve] |  |
| Cc1ccc(C)c(N2CCN(CCCNC(=O)c3ccc4nc(N5CCCCC5)sc4c3)CC2)c1 | inconclusive: 29.1 µM [cytotoxic, single point] |  |
| Cc1ccc(-c2nnc(Nc3ccccc3)c3ccccc23)cc1S(=O)(=O)NCc1nc2ccccc2[nH]1 | inconclusive: 32.6 µM [cytotoxic, single point] |  |
| Cc1cccc(N2CCN(C(=O)CCS(=O)(=O)c3ccc4c(c3)oc(=O)n4C)CC2)c1C | inactive |  |
| C=CCn1c(SCC(=O)c2cccs2)nc2sc(CC)cc2c1=O | inconclusive: 35.5 µM [cytotoxic, single point] |  |
| O=C(Nc1sccc1C(=O)N1CCOCC1)c1cccnc1 | inconclusive: 11.6 µM [rising, single point] |  |
| Cc1cccc(N=Nc2cnc(N)s2)c1 |  | inactive: -32.6% |
| O=C(NCc1ccccn1)C(=O)NCC1OCCCN1S(=O)(=O)c1ccc(F)cc1 (stereo not given) | inconclusive: 3.26 µM [rising, partial curve] |  |
| O=C(CCc1nc(-c2ccccc2F)no1)NC1CCCCCC1 | inconclusive: 16.4 µM [cytotoxic, partial curve, poor fit] |  |
| O=C(CN1C(=O)C2(SCC(=O)N2c2ccccc2)c2ccccc21)NCc1ccccc1 (stereo not given) |  | inactive: 14.8% |
| CCOC(=O)C1CCCN(C(=O)c2cccc(S(=O)(=O)N3CCCC3)c2)C1 (stereo not given) |  | inactive: -1.26% |
| CCN(CC(=O)Nc1ccc(C)c(F)c1)CC(=O)NC(C)C | inconclusive: 29.1 µM [rising, single point] |  |
| CN(Cc1ccccc1F)c1cc2c(c3c1ccn3C)C1CCC2O1 (stereo not given) | inconclusive: 29.1 µM [cytotoxic, single point] |  |
| Cc1ccc(C(=O)O/N=C(\N)c2ccccn2)c(C)c1 | inconclusive: 29.1 µM [cytotoxic, single point] |  |
| Cc1nn(CC(=O)Nc2cc(F)ccc2F)c(=O)c2cccn12 |  | inactive: -4.31% |
| COc1sc(SC)cc1/C=N/NC(=O)c1ccncc1 |  | inactive: -6.08% |
| CCc1ccccc1N(C)S(=O)(=O)c1ccc2[nH]cc(C(=O)N3CCc4ccccc43)c(=O)c2c1 |  | inactive: 5.64% |
| COc1ccc(-c2csc(NC3OC(=O)c4ccccc43)n2)cc1 (stereo not given) | inconclusive: 29.1 µM [cytotoxic, single point] |  |
| O=[N+]([O-])c1cc(/C=N/OCc2c(Cl)cccc2Cl)ccc1N1CCOCC1 | inconclusive: 16.4 µM [cytotoxic, single point] |  |

In the list so far, 2 have an NH in an aromatic ring.

| SMILES | Potency | activity change, negative = cytotoxic |
| --- | --- | --- |
| Cc1ccc(-c2nnc(Nc3ccccc3)c3ccccc23)cc1S(=O)(=O)NCc1nc2ccccc2[nH]1 | inconclusive: 32.6 µM [cytotoxic, single point] |  |
| CCc1ccccc1N(C)S(=O)(=O)c1ccc2[nH]cc(C(=O)N3CCc4ccccc43)c(=O)c2c1 |  | inactive: 5.64% |

Next part:

| SMILES | Potency | activity change, negative = cytotoxic |
| --- | --- | --- |
| CC(=O)Nc1ccc(NC(=O)CCn2c(=S)oc3ccccc32)cc1 | inconclusive: 5.17 µM [rising, partial curve] |  |
| COc1ccc(/C=C2\C(=O)NCC(=O)N2Cc2ccccc2)cc1 | inconclusive: 20.6 µM [cytotoxic, single point] |  |
| COc1cccc(NC(=O)CN(C)C(=O)CCCc2nc3ccccc3c(=O)[nH]2)c1 |  | inactive: -3.69% |
| Cc1c(CNC2CCCCC2)c(C(=O)O)c(C)n1Cc1ccc(F)cc1 |  | inactive: 18.2% |
| CCN(C(=O)c1cc2c(=O)n3cccc(C)c3nc2s1)c1ccc(C)c(C)c1 | inconclusive: 29.1 µM [cytotoxic, single point] |  |
| CCc1ccccc1N(C)S(=O)(=O)c1ccc(-c2cc(C)no2)s1 | inconclusive: 1.64 µM [cytotoxic, partial curve, poor fit] |  |
| Cc1cc(C)nc(NS(=O)(=O)c2ccc(NC(=O)C3COc4ccccc4O3)cc2)n1 (stereo not given) | inconclusive: 25.9 µM [cytotoxic, partial curve, poor fit] |  |
| Cc1ccc(NC(=O)Cn2nnc(-c3ccccc3NC(=O)c3cccs3)n2)cc1 | active: 1.03 µM |  |
| CCOC(=O)C1=C(COC(=O)C2CC(=O)N(c3ccccc3F)C2)NC(=O)NC1C (stereo not given) | inconclusive: 6.51 µM [rising, partial curve] |  |
| Nc1c(NC2CCCCC2)c2ccccc2oc1=O |  | inactive: 6.74% |
| CC(=O)Nc1cccc(-c2ccnc3c2CC(C)(C(=O)Nc2ccc(Cl)c(C(F)(F)F)c2)O3)c1 (stereo not given) | inconclusive: 29.1 µM [cytotoxic, single point] |  |
| CCOC(=O)c1nc(N2CCN(C(=O)OCC)CC2)c2c3c(sc2n1)CCCC3 |  | inactive: 4.9% |
| FC(F)(F)c1cnc(NNC(=S)Nc2ccccc2Cl)c(Cl)c1 | active: 16.4 µM |  |
| COc1ccc(C#Cc2ccc3c(c2)O[C@H](CN(C)C(C)=O)[C@H](C)CN([C@@H](C)CO)S3(=O)=O)cc1 | inconclusive: 18.4 µM [cytotoxic, single point] |  |
| O=C(NCc1ccco1)c1ccc2c(=O)n(CC3CCCO3)c(=S)[nH]c2c1 (stereo not given) |  | inactive: 23.1% |
| CCNC(=O)c1cnc2sc(N3CCC(C)CC3)nn2c1=O |  | inactive: -4.77% |
| CCCCCCC(=O)N1C/C=C\C(c2ccc(OC)cc2)N(Cc2ccc(F)cc2)C(=O)[C@H]1Cc1ccccc1 (stereo not given in full) |  | inactive: -6.46% |
| Cc1ccc(NC(=O)CSc2nn(-c3ccccc3)c(=S)s2)cc1S(=O)(=O)N(C)C | inconclusive: 23.1 µM [cytotoxic, single point] |  |
| O=C(Nc1cccc(Cl)c1)c1ccc2nc(Cc3ccccc3)oc2c1 | active: 14.6 µM |  |
| CC(C)c1ccc(CC(=O)N2CCC2(C)C(=O)Nc2ccccc2)cc1 (stereo not given) |  | inactive: -0.0096% |
| COc1ccccc1C(=O)NC(C)C(c1cccs1)N1CCN(C)CC1 (stereo not given) |  | inactive: -8.52% |
| COc1ccc2[nH]c3c(c2c1)CCN1C(=O)N([C@@H](C)C(=O)NCc2c(F)cccc2Cl)C(=O)[C@]31C | inconclusive: 18.4 µM [cytotoxic, single point] |  |
| O=C(CSc1n[nH]c(=O)n1Cc1ccco1)Nc1ccccc1 |  | inactive: 7.08% |
| Brc1c(-c2ccc3c(c2)OCO3)nc2ncccn12 | inconclusive: 29.1 µM [cytotoxic, single point] |  |

| SMILES | Potency | activity change, negative = cytotoxic |
| --- | --- | --- |
| CCCCn1c(CNC(=O)C23CC4CC(CC(C4)C2)C3)nnc1SCC(=O)Nc1ccccc1 |  | inactive: -14.8% |
| COc1ccc(NC(=O)c2cc(CN3C(=O)c4ccccc4C3=O)ccc2OC)cn1 | inconclusive: 11.6 µM [cytotoxic, partial curve] |  |
| Cc1c(C#N)c(N)nc2c3c(sc12)NC(=O)CC3c1ccc(Cl)cc1 (stereo not given) |  | inactive: 12.6% |
| Oc1c(Cl)cc(CN2CCOCC2)c2cccnc12 | inconclusive: 29.1 µM [cytotoxic, single point] |  |
| COc1ccccc1C(=O)CC(=O)c1ccccc1 | inconclusive: 29.1 µM [cytotoxic, single point] |  |
| CC(=O)N1CCN(c2ccc(NC(=O)c3cc(Cl)ccc3Cl)cc2)CC1 | inconclusive: 20.6 µM [cytotoxic, single point] |  |
| FC(F)(F)Oc1ccc(Nc2nc(N3CCOCC3)nc(N3CCOCC3)n2)cc1 |  | inactive: 19% |
| C[C@H](CO)N1C[C@H](C)[C@@H](CN(C)C(=O)Nc2ccc(C(F)(F)F)cc2)Oc2c(NC(=O)NC3CCCCC3)cccc2C1=O | inconclusive: 29.1 µM [cytotoxic, single point] |  |
| CCOC(=O)Cc1nnc2c(Nc3ccccc3F)nc3nonc3n12 | inconclusive: 29.1 µM [cytotoxic, single point] |  |
| COc1cc(C(=O)OCC(=O)NCc2ccc(F)cc2)ccc1OCC(C)C | active: 23.1 µM |  |
| Cc1ccc(OCC(=O)Nc2oc(-c3ccccc3)c(-c3ccccc3)c2C#N)cc1 |  | inactive: 12.3% |
| COc1cc2c(cc1OC)CN(C(=O)c1cc3ccccc3oc1=O)CC2 | inconclusive: 8.2 µM [cytotoxic, partial curve, poor fit] |  |
| CC1CCCN(S(=O)(=O)c2ccc(C(=O)Nc3sc4c(c3C(N)=O)CCN(C)C4)cc2)C1 (stereo not given) | inconclusive: 20.6 µM [cytotoxic, single point] |  |
| COc1ccc(S(=O)(=O)Nc2ccc3c(c2)CCC3)cc1 |  | inactive: -4.43% |
| CCOc1cc(-c2c(C#N)c(=O)[nH]c3c2c(C)nn3-c2ccc(F)cc2)ccc1O | inconclusive: 29.1 µM [cytotoxic, single point] |  |
| CCc1ccccc1NC(=O)c1cccc(Oc2ccc([N+](=O)[O-])cc2Cl)c1 | inconclusive: 10.3 µM [cytotoxic, partial curve, poor fit] |  |
| Cc1cccc(NC(=O)c2ccc([N+](=O)[O-])s2)c1C | inconclusive: 16.4 µM [cytotoxic, single point] |  |
| Cn1cc(-c2cnc3c(NC=O)cc(-c4cccc(C(F)(F)F)c4)cn23)cn1 | inconclusive: 20.6 µM [cytotoxic, partial curve, poor fit] |  |
| COc1ccc(C(C(=O)NC(C)(C)C)n2c(COc3ccc(C)cc3)nc3ccccc32)cc1 (stereo not given) |  | inactive: -4.98% |
| COc1cc2cc(CNc3ccc(C)cc3)c(=O)n(CC(=O)Nc3ccc(C(C)C)cc3)c2cc1OC |  | inactive: 2.46% |
| Cc1cn(-c2cccnc2)c(C)c1CNC[C@H]1O[C@@H](n2cnc3c(N)ncnc32)[C@H](O)[C@@H]1O | inconclusive: 5.8 µM [rising, partial curve] |  |
| CC1(C(=O)NS(=O)(=O)c2ccccc2)CCN1C(=O)CC(c1ccccc1)c1ccccc1 (stereo not given) |  | inactive: 4.72% |

Some of the entries above, reformatted.
CCCCn1c(CNC(=O)C23CC4CC(CC(C4)C2)C3)nnc1SCC(=O)Nc1ccccc1
  activity change, negative = cytotoxic: inactive: -14.8%
COc1cc(C(=O)OCC(=O)NCc2ccc(F)cc2)ccc1OCC(C)C
  Potency: active: 23.1 µM
COc1cc2c(cc1OC)CN(C(=O)c1cc3ccccc3oc1=O)CC2
  Potency: inconclusive: 8.2 µM [cytotoxic, partial curve, poor fit]
